Screen size: about 300,000 compounds; about 3,700 (1.2%) were called active. The shares of active, inactive and inconclusive entries below differ from those in the screen. Calls follow the shape of the full dose curve; tested in HEK293 cells. Potencies of inconclusive entries are doubtful fits and often do not repeat.
Experiment: qHTS for Inhibitors of binding or entry into cells for Lassa Virus; also: nearly all actives have a fitted effect of over 50% in size
Conditions: Lassa virus pseudotype entry inhibition, cell reporter; series mostly up to 37.9 µM
With `CC(=O)c1ccc(OCCCC(=O)Nc2cc(Cl)ccc2-n2cncn2)cc1` the Potency was “inactive”. In the case of `CN1CCN(C(c2cccc(Cl)c2)c2ccccc2Cl)CC1` (stereo not drawn), the Potency is reported as inconclusive: 13 µM [inhibitor, partial curve, poor fit]. In the case of `Cc1sc2nc(SCc3nc(-c4cccs4)no3)n(-c3ccccc3)c(=O)c2c1C`, the Potency is reported as inconclusive: 5.17 µM [inhibitor, partial curve]. In the case of `O=S1(=O)N(CCN2CC=C(c3c[nH]c4cc(F)ccc34)CC2)c2cccc3c2N1CCC3`, the Potency is reported as inconclusive: 16.4 µM [inhibitor, partial curve, poor fit]. In the case of `O=C(Nc1cccc(O)c1)c1cc(-c2ccccc2Cl)on1`, the Potency is reported as active: 5.01 µM. With `COCCN(C(=O)COC(=O)/C=C/c1ccc2ccccc2n1)c1c(N)n(Cc2ccccc2)c(=O)[nH]c1=O` the Potency was inconclusive: 7.94 µM [inhibitor, partial curve, poor fit]. In the case of `COc1ccc(-n2ncc3c(NC(C)(C)CO)ncnc32)cc1`, the Potency is reported as “inactive”. With `O=C(Nc1ccccc1F)Nc1ccccc1N1CCCCC1` the Potency was inconclusive: 11.2 µM [inhibitor, single point]. For `Cc1ccc[n+](CC(=O)c2cc3ccccc3oc2=O)c1`, the Potency was “inactive”. With `CN1CCc2c(sc3c2c(=O)n(-c2ccccc2)c2nncn32)C1` the Potency was inconclusive: 14.1 µM [activator, partial curve]. In the case of `COCCNc1ncnc2c1c(-c1ccccc1)cn2-c1ccc(C)c(Cl)c1`, the Potency is reported as inconclusive: 15.8 µM [activator, single point]. In the case of `CCOC(=O)N1CCN(C(=O)c2cccn3c(=O)c4sccc4nc23)CC1`, the Potency is reported as “inactive”. With `O=C(NCc1ccco1)c1ccc2c(c1)N(Cc1ccccc1)C(=O)c1ccccc1S2(=O)=O` the Potency was “inactive”. In the case of `CC1(c2ccc3noc(-c4ccc(Cl)cc4)c3c2)OCCO1`, the Potency is reported as inconclusive: 3.98 µM [inhibitor, full curve]. In the case of `Clc1ccccc1CNC1CN2CCC1CC2` (stereo not drawn), the Potency is reported as inconclusive: 3.16 µM [inhibitor, partial curve, poor fit]. For `O=S(=O)(Nc1ccc2nc(C(F)(F)F)[nH]c2c1)c1ccccc1`, the Potency was inconclusive: 9.2 µM [inhibitor, single point]. With `CCN1/C(=C/C=C/C=C/c2sc3ccccc3[n+]2CC)Sc2ccccc21` the Potency was active: 1.84 µM. With `Nc1nc(SCC(=O)Nc2ccc3c(c2)OCO3)n[nH]1` the Potency was “inactive”. In the case of `CC1CCc2[nH]c3ccc(C(=O)Nc4ccc(C(=O)N(C)C)cc4)cc3c2C1` (stereo not drawn), the Potency is reported as “inactive”. For `Cc1ccccc1NC(=S)Nc1ccc2cn[nH]c2c1`, the Potency was “inactive”. With `CCCCCCN1C[C@H](n2cc(COC(=O)c3ccccc3)nn2)[C@@H](O)C[C@H]1c1ccccc1` the Potency was inconclusive: 8.87 µM [inhibitor, full curve, poor fit]. In the case of `O=C1NC(=O)/C(=C/c2ccc3c(c2)OC(F)(F)O3)S1`, the Potency is reported as inconclusive: 18.3 µM [activator, single point]. With `C/C(=C\C=C(C#N)C#N)c1cc(C#N)c(N)o1` the Potency was “inactive”. In the case of `CCN1CCN(C(=O)N(CC(=O)Nc2ccc(C(N)=O)cc2)S(=O)(=O)c2ccc(C)cc2)CC1`, the Potency is reported as inconclusive: 1 µM [inhibitor, single point]. For `CC(C)CCSc1nc2c(c(=O)n(C)c(=O)n2C)n1Cc1ccccc1Cl`, the Potency was inconclusive: 6.31 µM [activator, partial curve, poor fit]. For `O=C1C(C=NCc2ccncc2)=C(O)c2ccccc21`, the Potency was “inactive”. In the case of `CN1CCN(c2oc(-c3ccccc3F)nc2S(=O)(=O)c2ccc(Cl)cc2)CC1`, the Potency is reported as inconclusive: 12.6 µM [inhibitor, partial curve, poor fit]. With `CCN(CC)CCCN(Cc1cc2cc3c(cc2[nH]c1=O)OCO3)C(=S)NCCCOC` the Potency was inconclusive: 5.62 µM [inhibitor, single point]. In the case of `C=CC(=O)N1C(=O)c2ccccc2S1(=O)=O`, the Potency is reported as inconclusive: 1.19 µM [activator, single point]. With `COc1ccc(C(=O)Nc2ccc3nc(N4CCN(C)CC4)cc(C)c3c2)c(OC)c1` the Potency was inconclusive: 3.55 µM [inhibitor, partial curve, poor fit]. In the case of `Clc1cccc(Cl)c1Cn1nnc(N2CCCC2)n1`, the Potency is reported as inconclusive: 14.1 µM [activator, single point]. With `CCN(C(=O)CN1C(=O)NC(c2ccccc2)(c2ccccc2)C1=O)c1ccccc1` the Potency was inconclusive: 12.6 µM [inhibitor, partial curve, poor fit]. For `O=C(COC(=O)c1cccc(-n2cnnn2)c1)c1ccc(Br)cc1`, the Potency was “inactive”. With `COc1cc(C(=O)Nc2ccc(F)cc2Cl)ccc1OCC(=O)N1CCOCC1` the Potency was inconclusive: 14.1 µM [inhibitor, single point]. With `CCOC(=O)C1=C(C)N(C)C(=O)NC1c1c(OC)ccc2ccccc12` (stereo not drawn) the Potency was inconclusive: 12.6 µM [activator, single point]. With `Cc1ccccc1/C=c1\s/c(=C\C(=O)C(C)(C)C)[nH]c1=O` the Potency was inconclusive: 10 µM [inhibitor, partial curve]. In the case of `Cc1cc(N2CCN(c3ccccc3F)CC2)n2cnnc2n1`, the Potency is reported as inconclusive: 6.31 µM [activator, single point]. In the case of `COc1cc(C(=O)Oc2ccccc2/C=N/NC(=O)c2ccc(C)cc2)cc(OC)c1OC`, the Potency is reported as active: 8.91 µM. In the case of `O=C1OCCC1Sc1nnc(-c2ccc3c(c2)OCO3)n1-c1ccccc1` (stereo not drawn), the Potency is reported as inconclusive: 35.5 µM [inhibitor, partial curve, poor fit]. In the case of `CCC(C)Cn1c(COc2ccc(OC)cc2)nc2ccccc21` (stereo not drawn), the Potency is reported as “inactive”. With `O=S1(=O)CCSCCN1Cc1ccccc1F` the Potency was inconclusive: 11.2 µM [activator, partial curve, poor fit]. With `COc1cc(NC(=O)COn2nnc3ccc(S(C)(=O)=O)cc32)cc(OC)c1` the Potency was inconclusive: 1.26 µM [inhibitor, single point]. For `COC(=O)c1cn(C(=O)c2ccc(C)cc2C)c2ccccc12`, the Potency was inconclusive: 7.94 µM [inhibitor, partial curve, poor fit]. With `COc1cc(NC(=O)CCN2CCOCC2)cc(OC)c1` the Potency was inconclusive: 35.5 µM [inhibitor, single point]. For `CCN1C/C(=C/c2cccs2)c2nc3ccccc3c(C(=O)O)c2C1`, the Potency was “inactive”. With `Cc1ccc(-c2noc(CCC(=O)NCCCN3CCN(c4cccc(Cl)c4)CC3)n2)cc1` the Potency was inconclusive: 35.5 µM [inhibitor, single point]. In the case of `C/C(CC(=O)NCCc1ccccc1)=N\NC(=O)COc1ccc(Br)cc1`, the Potency is reported as inconclusive: 1.26 µM [inhibitor, single point]. With `CCc1c(C)sc(NC(=S)NC(C)C2CCCO2)c1C(=O)OC` (stereo not drawn) the Potency was inconclusive: 35.5 µM [inhibitor, single point]. For `COc1ccc(Nc2ncc(C(=O)N3CCC4(CC3)OCCO4)c3ccccc23)cc1`, the Potency was “inactive”. For `CC(Cc1ccccc1)NC(=O)c1ccc(N)cc1` (stereo not drawn), the Potency was “inactive”. In the case of `O=[N+]([O-])c1ccccc1N/N=C/c1ccc2c(c1)OCO2`, the Potency is reported as “inactive”. For `O=C(CSc1nnc(-c2ccccc2)c(-c2ccccc2)n1)Nc1ccccc1Cl`, the Potency was “inactive”. For `CCOc1ccc(NC(=O)CCn2c(-c3ccc(F)cc3)cc(C(C)=O)c2C)cc1`, the Potency was inconclusive: 3.98 µM [inhibitor, partial curve, poor fit]. For `N#CC1=C(Nc2ccccc2)SC=C(c2ccc(Cl)c(Cl)c2)N=C1N1CCOCC1`, the Potency was “inactive”. In the case of `O=C1NC(c2cc3ccccc3nc2Cl)Nc2ccccc21` (stereo not drawn), the Potency is reported as inconclusive: 8.91 µM [inhibitor, partial curve]. For `CCN(CC)CC(C)(C)NS(=O)(=O)c1ccc(Cl)cc1`, the Potency was “inactive”. In the case of `N#Cc1c(N)nc2c(c1N)CC(=O)N2c1ccc(Cl)cc1`, the Potency is reported as inconclusive: 5.17 µM [activator, full curve, poor fit]. In the case of `Cc1c(NC(=O)Nc2ccccc2)cccc1[N+](=O)[O-]`, the Potency is reported as inconclusive: 11.2 µM [inhibitor, single point]. With `COc1ccc(C2=C(C)C(=O)N(Cc3ccc(C(=O)NCc4ccccc4C)cc3)S2(=O)=O)cc1` the Potency was inconclusive: 11.2 µM [inhibitor, partial curve, poor fit]. In the case of `CN(Cc1ccccc1)C(=O)c1ccc(COc2ccccc2)cc1`, the Potency is reported as inconclusive: 5.62 µM [inhibitor, partial curve, poor fit]. For `COc1ccccc1C1C2CCCCC2(O)CCN1CC(=O)Nc1ccccc1` (stereo not drawn), the Potency was “inactive”. In the case of `CCn1cnc2c(=O)oc3ccc(S(=O)(=O)N4CCN(c5cc(C)ccc5C)CC4)cc3c21`, the Potency is reported as “inactive”. For `COc1ccc(-c2csc3ncnc(N4CCN(S(=O)(=O)c5cccc(Br)c5)CC4)c23)cc1`, the Potency was inconclusive: 14.1 µM [inhibitor, partial curve, poor fit]. In the case of `O=C(N/N=C/c1ccc(Cl)cc1)c1sccc1OCc1ccc(F)cc1`, the Potency is reported as inconclusive: 1.26 µM [inhibitor, full curve, poor fit]. In the case of `COc1ccc(NC(=O)Nc2nnc(SCC(=O)Nc3cccc(C)c3C)s2)cc1`, the Potency is reported as inconclusive: 3.55 µM [inhibitor, single point]. With `COc1ccc(/C=N/NC(=S)Nc2cccc(C(=O)O)c2)cc1` the Potency was inconclusive: 17.8 µM [inhibitor, partial curve, poor fit]. With `CCOc1ccc(S(=O)(=O)N2CCN(C(=O)c3cc(-c4ccccc4)nn3-c3ccccc3)CC2)cc1` the Potency was inconclusive: 4.47 µM [inhibitor, single point]. In the case of `O=C(NCc1ccccc1)c1cccc(Nc2nc3ccccc3n3nnnc23)c1`, the Potency is reported as inconclusive: 2 µM [inhibitor, partial curve, poor fit].

— PubChem BioAssay AID540256 (National Center for Advancing Translational Sciences (NCATS), 2011)
Potency is read from the fitted curve at half-maximal effect.
